# Test results reported in the supplement of paper PMC10338343.
# ± gives the standard deviation. The list shows a part of the results. Many entries were measured with a wide error.
# System: EfPiwi piRISC loaded with L1MC piRNA (26 nt)
# Assay: pre-steady-state target cleavage rate (min^-1); guide: L1MC piRNA 5'p-UAACUAAAUACUAUGCAAGCUGUAGG; MIWI and MILI are mouse PIWI proteins and EfPiwi is from a freshwater sponge; tags in brackets are library labels; higher = faster piRNA-guided slicing of the target
# Conditions: auxiliary factor: 500 nM Ephydatia muelleri Gtsf1
# Summary of the method: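 The method was Cleave-'n-Seq, in which uncleaved targets from a transcribed, DNA-blocked target RNA library were sequenced after exposure to active affinity-purified piRISC carrying one synthetic guide, with or without GTSF1 partner protein. Reactions contained 0.1 nM library, 1 nM piRISC and, where present, 500 nM GTSF1 in HEPES–potassium acetate buffer at 33 °C for 0–8 or 0–960 min. Reads were normalised to depth and to weakly complementary targets, three trials were pooled, and k3 was capped at 0.0001 min^-1. The pre-steady-state cleavage rate came from a burst-and-steady-state fit.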
row,Sequence,pre-steady-state target cleavage rate
1,UCCUGCUACAGCUUGCAUAGUAUUUUGUUA,0.00916 ± 0.0029
2,UCCUGCUACAGCUUCAUAGUAUUUAGUUA,0.00994 ± 0.0031
3,UCCUGGUAUAGCUUGCAUAGUAUUUAGUUA,0.0287 ± 0.0075
4,UCCUGGAUCAGCAUGCAUAGUAAUUAGUUA,0.00437 ± 0.0016
5,UCCUGGUAGAGCUUGCAUUGUAUUUAGUUA,0.00786 ± 0.0033
6,UCCUGGUACACUUGCAUAGUAUUUAGUUA,0.00407 ± 0.0024
7,UCCUGCUACAGCUUGCAUAGUAUUUAUGUUA,0.00419 ± 0.0019
8,UCCUGGAACUGCUUGCUUAGUAUUUAGUUA,0.00646 ± 0.0033
9,UCCUGGAUGAGCUUGCAUACUAUUUACAAA,0.00184 ± 0.0023
10,UCCUCCUACAGCUUGCAUAGUAUUCAGUUA,0.0063 ± 0.0029
11,UCCUCCGUACAGCUUGCAUAGUAUUUAGUUA,0.0578 ± 0.018
12,UCCUGGAAAAGCUUGCAUAGUAUUUAGUUA,0.0119 ± 0.0039
13,UCCUGGAUGUCUUUGCAUAGUAUUUAGUUA,0.00871 ± 0.0039
14,UCCUGAUACAGCUUGCAUAGUAUUUAGUUA,0.0427 ± 0.014
15,UCCUGCUACAGCUUGUAUAGUAUUUAGUUA,0.029 ± 0.0067
16,UCCUGGAUGUCGAACGUAUCCAUUUAGUUA,0.000149 ± 0.028
17,UCCUCCUACAUCUUGCAUAGUAUUUAGUUA,0.0662 ± 0.02

row,Sequence,pre-steady-state target cleavage rate
1,UCCUCCUUCAGCUUGCAUAGUAUUAAGUUA,0.00716 ± 0.0031
2,UCCUCCUACAGCUGCAUAGUAUUUAGUUA,0.0884 ± 0.026
3,UCCUGGAUGUGCUUGCAUAGUAUUUUGUUA,0.00341 ± 0.0026
4,UCCUGGAUCAGCUUGCAUAGUAUUAAGAUA,0.006 ± 0.0032
5,UCCUCCUACACCUUGCAUAGUAUUUAGUUA,0.0762 ± 0.025
6,UCCUGCUACAGGUUGGAUAGUAUUUAGUUA,0.00793 ± 0.0027
7,UCCUGGAUGUACUUGCAUAGUAUUUAGUUA,0.00383 ± 0.0029
8,UCCUGGAUCAGCUUGGAAAGUAUUUAGUUA,0.00365 ± 0.0033
9,UCCUGCUACAGCUCGCAUAGUAUUUAGUUA,0.0122 ± 0.0028
10,UCCUGGAUGUCGAAGCAUAGUAUUUACGUUA,0.000284 ± 0.014
11,UCCUGGAUGUGCUUGCUUAGUAUUUAGUUA,0.00274 ± 0.0029
12,UCCUGGAUGUCGAACGUAUCUCUUUAGUUA,0.000135 ± 0.032
13,UCCUGGAUCAGGUUGCAUAGUAUAUAGUUA,0.00644 ± 0.0033
14,UCCUGCUACAGCUUGCGUAGUAUUUAGUUA,0.0375 ± 0.011
15,UCCUGGUACAGCAUGCUUAGUAUUUAGUUA,0.00778 ± 0.0028
16,UCCUGCUACAGCUUGCAUAGUAUUUAGUCA,0.00386 ± 0.0017
17,UCCUGGAUGUCGAAGCAUAUGUAUUUAGUUA,0.000731 ± 0.0091

# Same assay, conditions: auxiliary factor: none (no Gtsf1)
row,Sequence,pre-steady-state target cleavage rate
1,UCCUGGAUGUCGAAGCAUAGAAUUUAGUAA,0.000453 ± 0.023
2,UCCUGCUACACCUUGCAUAGUUUUUAGUUA,0.000432 ± 0.02
3,UCCUCCUACAGCUUGCUUAGUUUUUAGUUA,0.0017 ± 0.0059
4,UCCUGCUACUCGUUGCAUAGUAUUUAGUUA,0.000702 ± 0.013
5,UCCUCCUACAGCUAGCAUAGUUUUUAGUUA,0.000966 ± 0.0061
6,UCCUGGUACAGGUUGCAUUGUAUUUAGUUA,0.000291 ± 0.042

# An excerpt of the results above, as a working copy:
row,Sequence,pre-steady-state target cleavage rate
2,UCCUGCUACACCUUGCAUAGUUUUUAGUUA,0.000432 ± 0.02
3,UCCUCCUACAGCUUGCUUAGUUUUUAGUUA,0.0017 ± 0.0059
4,UCCUGCUACUCGUUGCAUAGUAUUUAGUUA,0.000702 ± 0.013
